Laboratory results taken from the supplement of paper PMC10849652.
The list shows a part of the results.

Amino acid sequences for entries named in this document (tags omitted). A change or cut given only in a name is not applied to a line headed by its entry.
UniProt Q8TAP9: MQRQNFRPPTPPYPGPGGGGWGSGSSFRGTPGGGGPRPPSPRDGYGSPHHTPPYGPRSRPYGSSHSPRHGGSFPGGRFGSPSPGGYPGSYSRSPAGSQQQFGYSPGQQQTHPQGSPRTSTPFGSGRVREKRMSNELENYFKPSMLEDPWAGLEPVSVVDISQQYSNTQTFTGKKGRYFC
UniProt Q86TA1: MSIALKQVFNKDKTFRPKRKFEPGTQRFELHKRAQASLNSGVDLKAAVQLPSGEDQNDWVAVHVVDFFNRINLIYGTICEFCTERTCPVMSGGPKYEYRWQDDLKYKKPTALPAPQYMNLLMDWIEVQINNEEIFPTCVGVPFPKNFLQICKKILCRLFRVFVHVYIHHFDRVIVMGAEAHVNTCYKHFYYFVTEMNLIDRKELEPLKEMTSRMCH
UniProt P14174: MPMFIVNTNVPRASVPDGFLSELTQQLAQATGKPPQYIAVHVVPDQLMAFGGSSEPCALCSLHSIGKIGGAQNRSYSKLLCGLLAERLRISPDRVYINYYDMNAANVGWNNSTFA
UniProt Q9BRT3: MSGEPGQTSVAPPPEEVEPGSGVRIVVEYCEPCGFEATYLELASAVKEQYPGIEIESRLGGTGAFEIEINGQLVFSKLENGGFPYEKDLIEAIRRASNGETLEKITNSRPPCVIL
UniProt P50219: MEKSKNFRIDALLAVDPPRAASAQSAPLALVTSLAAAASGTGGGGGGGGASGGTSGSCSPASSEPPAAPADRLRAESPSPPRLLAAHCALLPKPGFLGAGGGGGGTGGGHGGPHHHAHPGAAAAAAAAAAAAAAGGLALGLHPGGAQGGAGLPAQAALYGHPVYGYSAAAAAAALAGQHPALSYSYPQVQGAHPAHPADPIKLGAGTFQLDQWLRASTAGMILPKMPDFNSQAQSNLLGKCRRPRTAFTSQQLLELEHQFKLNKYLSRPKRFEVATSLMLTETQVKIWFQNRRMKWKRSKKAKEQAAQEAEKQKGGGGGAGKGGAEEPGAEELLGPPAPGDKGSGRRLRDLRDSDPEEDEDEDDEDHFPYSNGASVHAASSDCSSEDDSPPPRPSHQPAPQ
UniProt Q9UNW1: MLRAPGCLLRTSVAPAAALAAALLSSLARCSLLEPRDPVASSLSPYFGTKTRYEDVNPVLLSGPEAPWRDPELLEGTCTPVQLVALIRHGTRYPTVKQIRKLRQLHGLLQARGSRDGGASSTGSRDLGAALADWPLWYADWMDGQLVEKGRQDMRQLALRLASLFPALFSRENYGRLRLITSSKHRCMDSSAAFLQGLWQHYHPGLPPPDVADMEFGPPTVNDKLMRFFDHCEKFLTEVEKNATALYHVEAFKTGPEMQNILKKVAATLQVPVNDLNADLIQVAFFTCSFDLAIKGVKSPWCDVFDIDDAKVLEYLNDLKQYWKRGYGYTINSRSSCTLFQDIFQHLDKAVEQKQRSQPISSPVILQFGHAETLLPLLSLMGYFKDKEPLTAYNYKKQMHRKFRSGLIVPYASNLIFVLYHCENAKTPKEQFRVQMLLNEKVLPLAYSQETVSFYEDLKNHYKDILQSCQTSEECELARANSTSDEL
UniProt Q7L9L4: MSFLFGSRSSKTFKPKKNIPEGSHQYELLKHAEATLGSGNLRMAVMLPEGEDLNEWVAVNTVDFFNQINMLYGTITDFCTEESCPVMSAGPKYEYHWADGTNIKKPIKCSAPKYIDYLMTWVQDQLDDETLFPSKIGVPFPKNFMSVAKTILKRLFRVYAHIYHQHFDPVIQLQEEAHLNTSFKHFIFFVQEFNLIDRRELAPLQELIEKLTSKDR
UniProt Q5XKP0: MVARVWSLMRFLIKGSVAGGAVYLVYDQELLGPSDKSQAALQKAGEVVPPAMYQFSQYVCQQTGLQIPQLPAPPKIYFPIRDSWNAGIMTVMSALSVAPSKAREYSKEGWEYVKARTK
UniProt Q9UBU8, whole entry, looked up: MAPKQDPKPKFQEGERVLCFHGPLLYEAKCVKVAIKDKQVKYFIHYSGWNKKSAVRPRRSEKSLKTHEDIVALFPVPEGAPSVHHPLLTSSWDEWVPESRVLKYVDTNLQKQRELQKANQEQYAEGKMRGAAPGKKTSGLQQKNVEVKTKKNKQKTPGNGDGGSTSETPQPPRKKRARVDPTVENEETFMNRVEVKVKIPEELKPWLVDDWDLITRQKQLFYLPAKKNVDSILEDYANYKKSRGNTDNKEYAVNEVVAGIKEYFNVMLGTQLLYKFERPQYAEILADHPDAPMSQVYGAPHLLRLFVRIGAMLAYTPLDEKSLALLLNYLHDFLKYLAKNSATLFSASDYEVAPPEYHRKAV
UniProt Q9BPX6: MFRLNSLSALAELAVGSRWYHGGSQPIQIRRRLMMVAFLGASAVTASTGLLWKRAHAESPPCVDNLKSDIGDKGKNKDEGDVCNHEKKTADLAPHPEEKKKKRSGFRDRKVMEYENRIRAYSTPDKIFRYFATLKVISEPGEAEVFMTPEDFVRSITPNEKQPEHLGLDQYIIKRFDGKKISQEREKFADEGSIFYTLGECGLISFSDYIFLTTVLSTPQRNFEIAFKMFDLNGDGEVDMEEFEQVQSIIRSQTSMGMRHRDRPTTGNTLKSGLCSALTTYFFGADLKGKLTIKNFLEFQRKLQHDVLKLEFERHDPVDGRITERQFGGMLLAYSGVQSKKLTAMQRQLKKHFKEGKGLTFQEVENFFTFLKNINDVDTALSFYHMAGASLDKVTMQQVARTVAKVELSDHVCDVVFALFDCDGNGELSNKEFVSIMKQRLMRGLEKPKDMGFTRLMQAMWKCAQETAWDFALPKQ
UniProt Q99797: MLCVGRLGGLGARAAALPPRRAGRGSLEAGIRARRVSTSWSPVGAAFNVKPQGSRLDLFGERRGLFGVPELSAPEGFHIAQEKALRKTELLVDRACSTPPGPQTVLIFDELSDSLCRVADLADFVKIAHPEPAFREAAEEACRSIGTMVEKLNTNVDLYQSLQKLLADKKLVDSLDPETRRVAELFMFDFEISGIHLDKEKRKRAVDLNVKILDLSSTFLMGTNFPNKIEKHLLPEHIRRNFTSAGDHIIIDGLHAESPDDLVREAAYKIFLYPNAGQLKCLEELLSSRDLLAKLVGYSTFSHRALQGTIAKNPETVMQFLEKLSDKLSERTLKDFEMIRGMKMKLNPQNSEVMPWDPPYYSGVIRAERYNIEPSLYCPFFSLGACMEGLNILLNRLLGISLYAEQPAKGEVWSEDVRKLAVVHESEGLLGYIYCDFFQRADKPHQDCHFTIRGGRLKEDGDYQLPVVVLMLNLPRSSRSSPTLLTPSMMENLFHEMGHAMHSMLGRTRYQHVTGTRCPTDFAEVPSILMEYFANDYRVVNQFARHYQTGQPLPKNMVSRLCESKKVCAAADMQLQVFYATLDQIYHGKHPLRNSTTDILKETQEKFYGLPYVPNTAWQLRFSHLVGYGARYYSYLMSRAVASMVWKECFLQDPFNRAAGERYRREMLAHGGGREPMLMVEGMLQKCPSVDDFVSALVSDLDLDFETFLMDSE
UniProt Q6WCQ1: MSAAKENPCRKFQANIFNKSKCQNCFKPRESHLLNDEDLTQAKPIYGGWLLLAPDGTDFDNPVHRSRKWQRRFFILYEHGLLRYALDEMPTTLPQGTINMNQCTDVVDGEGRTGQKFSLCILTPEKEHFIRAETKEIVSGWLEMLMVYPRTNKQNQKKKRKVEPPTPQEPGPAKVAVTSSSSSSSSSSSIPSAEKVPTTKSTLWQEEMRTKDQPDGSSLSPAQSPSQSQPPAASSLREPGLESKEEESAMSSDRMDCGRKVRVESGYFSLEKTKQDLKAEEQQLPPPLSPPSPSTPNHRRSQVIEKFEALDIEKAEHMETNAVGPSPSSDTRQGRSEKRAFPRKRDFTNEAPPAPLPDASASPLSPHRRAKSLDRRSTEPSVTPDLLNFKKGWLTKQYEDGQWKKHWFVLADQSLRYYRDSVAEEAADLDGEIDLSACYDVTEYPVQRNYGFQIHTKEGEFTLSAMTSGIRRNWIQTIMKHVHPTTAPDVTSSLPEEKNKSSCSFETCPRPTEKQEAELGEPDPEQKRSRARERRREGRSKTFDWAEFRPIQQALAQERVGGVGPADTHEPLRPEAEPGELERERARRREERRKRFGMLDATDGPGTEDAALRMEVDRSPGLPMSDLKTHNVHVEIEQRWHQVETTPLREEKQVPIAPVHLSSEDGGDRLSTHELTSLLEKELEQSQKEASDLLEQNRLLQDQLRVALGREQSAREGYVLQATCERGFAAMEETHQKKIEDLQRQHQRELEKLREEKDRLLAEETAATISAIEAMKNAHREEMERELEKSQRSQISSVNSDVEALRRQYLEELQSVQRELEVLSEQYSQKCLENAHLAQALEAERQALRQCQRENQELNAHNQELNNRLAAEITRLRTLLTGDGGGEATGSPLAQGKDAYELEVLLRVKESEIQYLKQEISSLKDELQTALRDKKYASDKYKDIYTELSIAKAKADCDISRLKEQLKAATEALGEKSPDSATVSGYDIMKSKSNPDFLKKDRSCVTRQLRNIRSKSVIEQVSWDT
UniProt Q9Y5U8: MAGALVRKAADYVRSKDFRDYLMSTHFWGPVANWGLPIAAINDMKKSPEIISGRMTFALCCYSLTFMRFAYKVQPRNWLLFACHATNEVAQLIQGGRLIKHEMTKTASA
UniProt Q9Y605: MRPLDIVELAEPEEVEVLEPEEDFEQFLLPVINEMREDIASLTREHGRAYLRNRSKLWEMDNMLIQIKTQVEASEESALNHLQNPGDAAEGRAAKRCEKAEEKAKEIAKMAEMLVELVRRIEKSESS
UniProt Q9H000: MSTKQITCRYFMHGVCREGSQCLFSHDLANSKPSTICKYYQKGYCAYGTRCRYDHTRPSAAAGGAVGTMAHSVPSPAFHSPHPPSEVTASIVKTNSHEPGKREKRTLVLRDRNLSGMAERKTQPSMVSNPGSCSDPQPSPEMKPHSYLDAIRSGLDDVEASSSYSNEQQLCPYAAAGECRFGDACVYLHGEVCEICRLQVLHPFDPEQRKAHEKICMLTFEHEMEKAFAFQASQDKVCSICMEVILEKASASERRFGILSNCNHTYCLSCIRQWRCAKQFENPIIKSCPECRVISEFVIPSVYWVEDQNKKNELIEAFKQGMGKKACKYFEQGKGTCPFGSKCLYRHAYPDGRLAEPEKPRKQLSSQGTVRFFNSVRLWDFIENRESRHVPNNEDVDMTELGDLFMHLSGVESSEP
UniProt P40692: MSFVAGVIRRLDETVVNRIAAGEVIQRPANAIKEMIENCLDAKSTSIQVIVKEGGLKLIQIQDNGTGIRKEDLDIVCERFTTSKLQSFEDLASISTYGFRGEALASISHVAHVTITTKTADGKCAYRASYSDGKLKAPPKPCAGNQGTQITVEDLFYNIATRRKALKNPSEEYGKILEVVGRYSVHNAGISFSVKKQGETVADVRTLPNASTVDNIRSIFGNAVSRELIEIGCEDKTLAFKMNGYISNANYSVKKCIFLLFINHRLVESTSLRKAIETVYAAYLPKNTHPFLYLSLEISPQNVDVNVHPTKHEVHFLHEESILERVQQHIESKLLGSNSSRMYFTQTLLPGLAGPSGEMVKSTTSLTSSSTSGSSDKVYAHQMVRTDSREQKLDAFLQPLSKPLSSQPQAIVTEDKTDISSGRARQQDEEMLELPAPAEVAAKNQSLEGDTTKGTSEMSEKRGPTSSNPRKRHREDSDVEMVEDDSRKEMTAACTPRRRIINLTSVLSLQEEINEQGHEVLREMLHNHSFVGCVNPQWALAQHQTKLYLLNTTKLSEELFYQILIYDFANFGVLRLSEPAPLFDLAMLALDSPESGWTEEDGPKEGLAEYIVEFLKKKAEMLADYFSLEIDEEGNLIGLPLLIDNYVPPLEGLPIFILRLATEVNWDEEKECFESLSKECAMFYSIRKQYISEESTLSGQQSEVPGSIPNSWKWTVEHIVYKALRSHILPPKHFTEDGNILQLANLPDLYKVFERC
UniProt P29372, whole entry, looked up: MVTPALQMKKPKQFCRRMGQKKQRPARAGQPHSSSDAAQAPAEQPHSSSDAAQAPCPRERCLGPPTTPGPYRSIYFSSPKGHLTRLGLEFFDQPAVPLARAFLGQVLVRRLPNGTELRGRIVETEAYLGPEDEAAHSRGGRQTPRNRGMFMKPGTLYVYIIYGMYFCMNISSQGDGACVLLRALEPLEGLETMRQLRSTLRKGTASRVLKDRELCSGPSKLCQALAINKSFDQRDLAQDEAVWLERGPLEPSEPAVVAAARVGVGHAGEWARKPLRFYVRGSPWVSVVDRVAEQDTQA
UniProt Q9NQG6: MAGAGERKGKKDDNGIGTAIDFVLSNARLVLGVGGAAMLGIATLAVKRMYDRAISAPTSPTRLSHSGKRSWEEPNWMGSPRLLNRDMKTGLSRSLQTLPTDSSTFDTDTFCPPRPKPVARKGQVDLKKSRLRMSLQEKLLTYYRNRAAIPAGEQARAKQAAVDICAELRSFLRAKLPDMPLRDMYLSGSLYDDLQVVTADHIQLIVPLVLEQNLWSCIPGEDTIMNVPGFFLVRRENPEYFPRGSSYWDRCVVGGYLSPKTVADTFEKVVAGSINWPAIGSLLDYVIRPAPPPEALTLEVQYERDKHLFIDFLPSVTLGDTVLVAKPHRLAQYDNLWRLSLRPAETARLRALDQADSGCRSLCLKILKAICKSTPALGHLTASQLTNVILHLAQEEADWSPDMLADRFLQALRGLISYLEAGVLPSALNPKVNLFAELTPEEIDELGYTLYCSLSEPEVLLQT

Assays:
Assay in all cases: log2 fold change, soluble protein after heating vs DMSO (PISA); higher = thermal stabilisation; K562 lysate, 10 uM; active = over 0.2 and 3.5 SD of the protein, either way, in both replicates (recomputed)
[1] = compound: NCC(=O)Nc1ccc(-n2nc(C(F)(F)F)cc2-c2ccc3c(ccc4ccccc43)c2)cc1
Method in brief: (§1)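 Pellets of K562 cells were dounce-homogenised in PBS pH 7.4 with 1 mM MgCl2, and the crude extract was held at 1 mg/mL protein for a 30 min treatment with 10 μM compound. Aliquots were heated for 3 min over 48°C-58°C and pooled before NP-40 was added to 0.5% at 4°C. The supernatant from 21,000xg for 90 min was quantified by TMTpro 16plex LC-MS/MS with channel sums equalised. Values are reported from duplicates as log-two fold change in thermal stability relative to solvent controls.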

vorinostat = compound: O=C(CCCCCCC(=O)Nc1ccccc1)NO [vorinostat]
Method in brief: as §1

silmitasertib = compound: O=C(O)c1ccc2c(c1)nc(Nc1cccc(Cl)c1)c1ccncc12 [silmitasertib]
Method in brief: as §1

[2] = compound: O=C1NC(=O)C(c2cnc3ccccn23)=C1c1cn2c3c(cc(F)cc13)CN(C(=O)N1CCCCC1)CC2
Method in brief: as §1

entospletinib = compound: c1cn2cc(-c3ccc4cn[nH]c4c3)nc(Nc3ccc(N4CCOCC4)cc3)c2n1 [entospletinib]
Method in brief: as §1

Target	log2 fold change [1]	log2 fold change (vorinostat)	log2 fold change (silmitasertib)	log2 fold change [2]	log2 fold change (entospletinib)
MORC2 (UniProt Q9Y6X9)	inactive: 0.014	active: -0.328	inactive: 0.103	inactive: -0.015	inactive: 0.013
MINDY1 isoform 3 (UniProt Q8N5J2)	inactive: -0.097	inactive: -0.186	inactive: 0.144	inactive: 0.166	inactive: -0.052
MMTAG2 (UniProt Q9BU76)	inactive: 0.051	inactive: -0.185	inactive: 0.007	inactive: 0.048	inactive: 0
MIEF1 (UniProt L0R8F8)	inactive: -0.016	inactive: -0.018	inactive: 0.077	inactive: 0.029	inactive: 0.004
MPLKIP (UniProt Q8TAP9)	inactive: 0.043	inactive: -0.041	inactive: 0.085	inactive: -0.113	inactive: 0.05
MOB3B (UniProt Q86TA1)	inactive: 0.086	inactive: -0.093	inactive: -0.024	inactive: -0.036	inactive: -0.086
MGA (UniProt Q8IWI9)	inactive: 0	inactive: 0.068	inactive: -0.008	inactive: -0.061	inactive: -0.08
MINDY3 (UniProt Q9H8M7)	inactive: -0.032	inactive: -0.004	inactive: -0.006	inactive: -0.012	inactive: 0.039
MPV17 (UniProt P39210)	inactive: -0.168	inactive: 0.001	inactive: -0.044	inactive: 0.085	inactive: 0.112
MIF (UniProt P14174)	inactive: 0.048	inactive: -0.055	inactive: 0.065	inactive: -0.009	inactive: 0.064
MKI67 (UniProt P46013)	inactive: -0.051	inactive: -0.005	inactive: -0.004	inactive: 0	inactive: -0.016
MIEN1 (UniProt Q9BRT3)	inactive: -0.148	inactive: 0.124	inactive: 0.009	inactive: 0.05	inactive: -0.028
MNX1 (UniProt P50219)	inactive: -0.063	inactive: -0.102	inactive: 0.03	inactive: -0.01	inactive: -0.215
MRPL12 (UniProt P52815)	inactive: -0.07	inactive: 0.116	inactive: -0.023	inactive: 0	inactive: -0.152
MMS19 isoform 8 (UniProt Q96T76)	inactive: 0.057	active: -0.372	inactive: 0.054	inactive: 0.029	inactive: 0.024
MORF4L2 (UniProt Q15014)	inactive: 0.019	inactive: 0.005	inactive: 0.025	inactive: 0.054	inactive: 0.018
MRE11 isoform 3 (UniProt P49959)	inactive: 0.009	inactive: 0.027	inactive: 0	inactive: 0.014	inactive: -0.013
MPDZ (UniProt O75970)	inactive: 0.058	active: -0.59	inactive: 0.066	inactive: 0.177	inactive: -0.111
MINK1 (UniProt Q8N4C8)	inactive: -0.02	inactive: -0.205	inactive: -0.109	inactive: 0.043	inactive: 0.182
MLEC (UniProt Q14165)	inactive: -0.041	inactive: 0.08	inactive: 0.034	inactive: -0.01	inactive: -0.01
MLX (UniProt Q9UH92)	inactive: 0.057	inactive: -0.273	inactive: -0.035	inactive: 0.057	inactive: -0.054
MICAL3 (UniProt Q7RTP6)	inactive: 0.023	inactive: 0.001	inactive: -0.006	inactive: -0.019	inactive: -0.02
MINPP1 (UniProt Q9UNW1)	inactive: -0.034	inactive: 0.147	inactive: 0.022	inactive: -0.041	inactive: 0.017
MOB1B isoform 2 (UniProt Q7L9L4)	inactive: 0.014	inactive: 0.097	inactive: -0.027	inactive: -0.033	inactive: 0.009

Nothing new here: entries from further up.
Target	log2 fold change [1]	log2 fold change (vorinostat)	log2 fold change (silmitasertib)	log2 fold change [2]	log2 fold change (entospletinib)
MLEC (UniProt Q14165)	inactive: -0.041	inactive: 0.08	inactive: 0.034	inactive: -0.01	inactive: -0.01
MLX (UniProt Q9UH92)	inactive: 0.057	inactive: -0.273	inactive: -0.035	inactive: 0.057	inactive: -0.054
MICAL3 (UniProt Q7RTP6)	inactive: 0.023	inactive: 0.001	inactive: -0.006	inactive: -0.019	inactive: -0.02

Next records follow:

Target	log2 fold change [1]	log2 fold change (vorinostat)	log2 fold change (silmitasertib)	log2 fold change [2]	log2 fold change (entospletinib)
MICOS13 (UniProt Q5XKP0)	inactive: -0.063	inactive: 0.083	inactive: 0	inactive: -0.004	inactive: -0.009
MORF4L1 isoform 2 (UniProt Q9UBU8)	inactive: 0.013	inactive: 0.058	inactive: -0.002	inactive: 0.015	inactive: 0.018
MICU1 isoform 3 (UniProt Q9BPX6)	inactive: -0.085	inactive: -0.133	inactive: 0.065	inactive: -0.003	inactive: -0.019
MMAB (UniProt Q96EY8)	inactive: -0.034	inactive: 0.027	inactive: -0.01	inactive: -0.016	inactive: 0.04
MIPEP (UniProt Q99797)	inactive: 0.005	inactive: -0.043	inactive: 0.007	inactive: -0.021	inactive: -0.028
MPRIP isoform 2 (UniProt Q6WCQ1)	inactive: 0.033	inactive: -0.041	inactive: 0.01	inactive: 0.023	inactive: -0.089
MRPL14 (UniProt Q6P1L8)	inactive: -0.039	inactive: -0.009	inactive: -0.006	inactive: 0.041	inactive: 0.013
MOSPD2 (UniProt Q8NHP6)	active: -0.364	inactive: 0.039	inactive: 0.071	inactive: -0.02	inactive: -0.074
MLST8 (UniProt Q9BVC4)	inactive: 0.006	active: -0.357	inactive: 0.104	inactive: 0.046	inactive: 0.043
MPC1 (UniProt Q9Y5U8)	inactive: 0.096	inactive: 0.051	inactive: 0.094	inactive: -0.02	inactive: 0.051
MRPL15 (UniProt Q9P015)	inactive: 0.068	inactive: 0.137	inactive: -0.071	inactive: -0.02	inactive: -0.061
MICALL1 (UniProt Q8N3F8)	inactive: 0.011	inactive: -0.119	inactive: -0.017	inactive: -0.003	inactive: -0.019
MRPL11 (UniProt Q9Y3B7)	inactive: 0.016	inactive: -0.165	inactive: 0.055	inactive: 0	inactive: 0.049
MORC3 (UniProt Q14149)	inactive: 0.008	active: -0.303	inactive: -0.01	inactive: 0.005	inactive: 0.009
MRFAP1 (UniProt Q9Y605)	inactive: -0.043	inactive: 0.044	inactive: 0.086	inactive: 0.032	inactive: 0.016
MOB4 (UniProt Q9Y3A3)	inactive: -0.028	inactive: -0.011	inactive: -0.015	inactive: -0.006	inactive: 0.059
MRPL18 (UniProt Q9H0U6)	inactive: -0.007			inactive: 0.01	inactive: 0.031
MKRN2 (UniProt Q9H000)	inactive: -0.051	inactive: -0.166	inactive: 0.043	inactive: -0.048	inactive: 0.001
MLYCD (UniProt O95822)		inactive: -0.101	inactive: 0.147	inactive: -0.072	inactive: -0.031
MLXIPL (UniProt Q9NP71)		inactive: -0.066	inactive: 0.011	inactive: 0.051	
MLH1 (UniProt P40692)	inactive: 0.04	active: -0.312	inactive: 0.025	inactive: 0.005	inactive: 0.022
MPG (UniProt P29372)	inactive: 0.043	inactive: -0.048	inactive: 0.05	inactive: -0.021	inactive: -0.035
MIEF1 (UniProt Q9NQG6)	inactive: -0.006	inactive: 0.058	inactive: 0.024	inactive: -0.028	inactive: -0.024
MRPL22 (UniProt Q9NWU5)		active: -0.687	inactive: 0.001	inactive: -0.007	
